PubChem BioAssay AID1259254, NCATS | 2017
The whole screen tested about 59,000 reagents; below is a part drawn at random. About 1,550 of all reagents (2.6%) count as active. 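G2 share is only a proxy for re-replication; each gene was hit by three separate siRNAs, and active genes were retested.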 Unmarked entries are inactive. The numbers tell different reagents against one gene apart. Further read-outs or replicates are left out here. Not given: the amount of reagent.

- Screen: 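Finding genes that stop cells copying their DNA twice in one cycle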 (primary screen)
- Cells: human HCT116 colorectal cancer cells
- Knock-down reagent: single siRNA against human genes
- Timing: 3 days
- Detection: 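Imaged Hoechst DNA stain sorts each cell into a cycle phase by DNA amount; per plate, G2 fraction set to 0% for non-targeting and 100% for GMNN siRNA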
- Direction: G2 robust z-score and G2 cells, % of GMNN control: higher = more G2 cells, more excess DNA replication
- Active means: 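An siRNA counts as active if its G2 robust z-score lies at least 5 MADs above the screen median; here such calls match roughly 38% of GMNN control or more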

Silencing of PDZRN3 #1 resulted in: G2 robust z-score -1.65; G2 cells, % of GMNN control -8.61.
After knock-down of PDZRN3 #2, the screen gave G2 robust z-score 6.17 (active); G2 cells, % of GMNN control 46.4.
Against PDZRN3 #3 the deposit lists G2 robust z-score -0.217; G2 cells, % of GMNN control 1.44.
After knock-down of PCDHA13 #1, the screen gave G2 robust z-score -0.925; G2 cells, % of GMNN control -3.54.
PCDHA13 #2 gave G2 robust z-score -0.681; G2 cells, % of GMNN control -1.83.
With knock-down of PCDHA13 #3 the results were G2 robust z-score 3.38; G2 cells, % of GMNN control 26.7.
Knock-down of MPHOSPH8 #1 gave: G2 robust z-score -1.18; G2 cells, % of GMNN control -5.37.
MPHOSPH8 #2 scored G2 robust z-score 2.73; G2 cells, % of GMNN control 22.2.
Against MPHOSPH8 #3 the deposit lists G2 robust z-score 1.34; G2 cells, % of GMNN control 12.4.

3 successive reagents from above, for reference:
PDZRN3 #3: G2 robust z-score = -0.217; G2 cells, % of GMNN control = 1.44
PCDHA13 #1: G2 robust z-score = -0.925; G2 cells, % of GMNN control = -3.54
PCDHA13 #2: G2 robust z-score = -0.681; G2 cells, % of GMNN control = -1.83

Continued.
Depletion of TAF11L1 #1 gave: G2 robust z-score -0.527; G2 cells, % of GMNN control -0.739.
TAF11L1 #2 scored G2 robust z-score -0.892; G2 cells, % of GMNN control -3.31.
After knock-down of TAF11L1 #3, the screen gave G2 robust z-score -0.412; G2 cells, % of GMNN control 0.0669.
Against SUN1 #1, the entry reads G2 robust z-score -0.66; G2 cells, % of GMNN control -1.68.
SUN1 #2 showed G2 robust z-score -0.249; G2 cells, % of GMNN control 1.22.
SUN1 #3 showed G2 robust z-score 1.1; G2 cells, % of GMNN control 10.7.
UBA52 #1 gave G2 robust z-score 2.9; G2 cells, % of GMNN control 23.4.
With knock-down of UBA52 #2, the record shows G2 robust z-score 3.29; G2 cells, % of GMNN control 26.1.
UBA52 #3 showed G2 robust z-score 1.46; G2 cells, % of GMNN control 13.3.
